Values joined by “and” are separate entries in the source; they are usually repeats but may differ in a detail not shown here. Equal entries are not always repeated. Out of some 390,000 compounds screened, about 910 (0.23%) were called active. The inconclusive results got no clear call from the source; some entries with a clear call stand among them for comparison. Calls follow the shape of the dose curve; as a rule, active = well fitted inhibition curve with a large enough effect; inconclusive = small, poorly fitted or top-dose-only effect; inactive = no such curve, though single readings can be large or run the other way. Where the call is inconclusive, the potency comes from a doubtful curve fit.
What follows are compounds tested against Ubiquitin carboxyl-terminal hydrolase 1 (Homo sapiens) (UniProt O94782) (assay: Inhibitors of USP1/UAF1: Primary Screen). Conditions: recombinant USP1/UAF1, Ub-Rhodamine cleavage fluorescence; activity change, negative = inhibition: at 57.1 µM (top of the series).
How it was run: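 1 nM enzyme complex + cpd, 15 min RT; start with Ub-Rho 150nM final; kinetic fluorescence ex 480/em 540, 6 reads q60 s. Buffer 50mM HEPES pH 7.8, 0.5mM EDTA, 0.1 mg/ml BSA, 1mM TCEP, 0.01% Tween-20.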
% is scaled to controls: 0 for no effect and ±100 for the full control effect; potency is read from the fitted curve at half-maximal effect.
Also: nearly all actives have a fitted effect of over 60% in size.

Sequences of proteins named here, by UniProt entry; tags and fusion partners are left off. A change or cut given only in a name is not applied to a line headed by its entry.
UniProt O94782: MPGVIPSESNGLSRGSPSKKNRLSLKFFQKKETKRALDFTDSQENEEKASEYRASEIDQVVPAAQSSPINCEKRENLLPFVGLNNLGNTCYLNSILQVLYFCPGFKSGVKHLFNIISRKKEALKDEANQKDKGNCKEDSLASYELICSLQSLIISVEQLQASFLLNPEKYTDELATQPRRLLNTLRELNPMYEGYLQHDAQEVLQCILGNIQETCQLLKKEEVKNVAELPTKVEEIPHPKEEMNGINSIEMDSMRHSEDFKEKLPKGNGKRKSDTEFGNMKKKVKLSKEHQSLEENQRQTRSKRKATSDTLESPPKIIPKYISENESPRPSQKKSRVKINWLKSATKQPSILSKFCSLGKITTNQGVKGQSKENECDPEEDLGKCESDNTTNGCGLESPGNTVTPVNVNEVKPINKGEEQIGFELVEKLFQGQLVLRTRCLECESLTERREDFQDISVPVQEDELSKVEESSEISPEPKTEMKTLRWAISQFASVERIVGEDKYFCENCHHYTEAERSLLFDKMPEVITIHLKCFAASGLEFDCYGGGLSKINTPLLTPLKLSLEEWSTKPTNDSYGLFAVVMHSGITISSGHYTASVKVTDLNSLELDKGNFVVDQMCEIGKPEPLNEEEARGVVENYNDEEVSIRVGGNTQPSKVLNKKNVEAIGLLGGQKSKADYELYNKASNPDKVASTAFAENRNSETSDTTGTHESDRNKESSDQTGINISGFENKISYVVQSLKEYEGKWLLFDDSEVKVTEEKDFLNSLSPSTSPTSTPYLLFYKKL

Row | Compound | Potency | activity change, negative = inhibition
1 | O=C(Nc1nnc(S(=O)(=O)N2CCCc3ccccc32)s1)c1cccc(F)c1 | inconclusive: 79.4 µM [inhibitor, partial curve, poor fit] | –
2 | O=C(C1=C[C@@H](C2CCCCC2)C[C@@H](OCc2ccc(CO)cc2)O1)N1CCOCC1 | inconclusive: 50.1 µM [inhibitor, partial curve, poor fit] | –
3 | CC(=O)Nc1ccc(CC(=O)O)cc1 | – | inactive: -24.7%
4 | CC1=NC(C(F)(F)F)(C(F)(F)F)C(C#N)=C(C)N1 | inconclusive: 25.1 µM [inhibitor, single point] | –
5 | COc1ccc(NC(=O)c2cc(S(=O)(=O)N3CCCCCC3)cn2C)cc1Cl | – | inactive: -29.3%
6 | CC(=O)N(C)c1ccc(N=Nc2ccc3ncccc3c2)cc1 | inconclusive: 50.1 µM [inhibitor, partial curve, poor fit] | –
7 | O=C(NCc1ccco1)c1c(F)c(F)c(F)c(C(=O)NCc2ccco2)c1F | inconclusive: 63.1 µM [inhibitor, single point] | –
8 | CN1/C(=C/C=C(C#N)C#N)C(C)(C)c2ccccc21 | inconclusive: 35.5 µM [inhibitor, partial curve, poor fit] | –
9 | OC(c1cc(C(F)(F)F)nc2c(Cl)cc(Cl)cc12)C1CCCCN1 (stereo unspecified) | – | inactive: -16.9%
10 | COc1ccc(OC)c(CNC(=O)Cn2nc(C)c3nn(-c4ccc(Cl)cc4)c(C)c3c2=O)c1 | inconclusive: 1.26 µM [inhibitor, partial curve, poor fit] | –
11 | CN(C)c1ccc(N=Cc2ccco2)cc1 | inconclusive: 25.1 µM [inhibitor, partial curve] | –
12 | CN1CCN(C(=O)CCCN2C(=O)/C(=C/c3ccccc3)SC2=S)CC1 | – | inactive: -7.33%
13 | CCc1nnc(NS(=O)(=O)c2ccc(NC(=S)NC(=O)/C=C/c3ccc(OC)cc3)cc2)s1 | – | inactive: -6.78%
14 | COc1ccc(OCC(=O)Nc2cc(-c3nc4ccccc4s3)ccc2C)cc1 | inconclusive: 39.8 µM [inhibitor, partial curve, poor fit] | –
15 | O=C(NCCN1CCOCC1)c1cc(-c2ccc(Cl)c(Cl)c2)on1 | inconclusive: 7.08 µM [inhibitor, single point] | –
16 | C#CCN1C(C)=C(C(=O)OC)C(c2cccc([N+](=O)[O-])c2)C(C(=O)OCC)=C1C (stereo unspecified) | inconclusive: 15.8 µM [inhibitor, partial curve, poor fit] | –
17 | CCN1C(=O)[C@H]2[C@@H](c3ccc(SC4CCCCC4)c(OC)c3)N3CCCC[C@@]3(C(=O)OC)[C@H]2C1=O | inconclusive: 8.91 µM [inhibitor, partial curve, poor fit] | –
18 | COc1ccc2c(c1)c1c(c(=O)n(-c3ccc(C)cc3)c(=O)n1CC(=O)NCc1ccc(C)cc1)n2C | inconclusive: 2 µM [inhibitor, full curve, poor fit] | –
19 | COc1ccccc1C1Nc2c(sc3nc(C)cc(C)c23)C(=O)N1c1ccccc1 (stereo unspecified) | – | inactive: -28.2%
20 | Cc1ccc(CNc2ncnc3c2cnn3-c2ccc(Cl)cc2)cc1 | inconclusive: 0.1 µM [inhibitor, full curve, poor fit] | –
21 | O=C(COc1ccc(Br)cc1)NCc1ccccn1 | inconclusive: 28.2 µM [inhibitor, single point] | –
22 | Cc1ccccc1OCC(=O)Nc1ccc2nc(SCC(=O)N3CCc4ccccc43)sc2c1 | – | inactive: 5.87%

Single entries from the list.
Potency, CN1/C(=C/C=C(C#N)C#N)C(C)(C)c2ccccc21 is entered as inconclusive: 35.5 µM [inhibitor, partial curve, poor fit]
Potency, COc1ccc(OCC(=O)Nc2cc(-c3nc4ccccc4s3)ccc2C)cc1 is entered as inconclusive: 39.8 µM [inhibitor, partial curve, poor fit]
activity change, negative = inhibition, Cc1ccccc1OCC(=O)Nc1ccc2nc(SCC(=O)N3CCc4ccccc43)sc2c1 is entered as inactive: 5.87%
activity change, negative = inhibition, OC(c1cc(C(F)(F)F)nc2c(Cl)cc(Cl)cc12)C1CCCCN1 (stereo unspecified) is entered as inactive: -16.9%
Potency, O=C(NCCN1CCOCC1)c1cc(-c2ccc(Cl)c(Cl)c2)on1 is entered as inconclusive: 7.08 µM [inhibitor, single point]

Next part:

Row | Compound | Potency | activity change, negative = inhibition
23 | COC(=O)N/N=C/c1cccnc1 | inconclusive: 44.7 µM [inhibitor, partial curve, poor fit] | –
24 | Cc1cccc(N2CCN(S(=O)(=O)c3ccc(-c4cc(C(F)(F)F)on4)s3)CC2)c1C | – | inactive: 3.51%
25 | O=C(CCNC(=O)c1ccco1)Nc1ccc(OC(F)F)c(Cl)c1 | – | inactive: -13.5%
26 | CCCS(=O)(=O)N1CCCC(C(=O)NCCCOCC)C1 (stereo unspecified) | – | inactive: 7.89%
27 | COc1ccccc1CCC(=O)NNC(=O)c1cccs1 | inconclusive: 7.08 µM [inhibitor, full curve] | –
28 | CCNC(=S)N(CCc1c(C)[nH]c2ccc(Cl)cc12)Cc1cccnc1 | inconclusive: 35.5 µM [inhibitor, partial curve] | –
29 | Cc1ccc(S(=O)(=O)Oc2cccc([N+](=O)[O-])c2)cc1 | inconclusive: 7.08 µM [inhibitor, single point] | –
30 | O=C(COC(=O)c1cccc(NC(=O)c2ccco2)c1)c1ccc(Br)cc1 | inconclusive: 56.2 µM [inhibitor, partial curve] | –
31 | CCc1nc(-c2cc(S(=O)(=O)N3CCN(c4ccccc4F)CC3)ccc2OC)no1 | inconclusive: 5.62 µM [inhibitor, full curve, poor fit] | –
32 | Cc1c(NC(=O)c2cc3ccccc3c(=O)s2)c(=O)n(-c2ccccc2)n1C | inconclusive: 0.355 µM [inhibitor, full curve, poor fit] | –
33 | CC(=O)Nc1ccc(NC(=O)c2ccc3c(c2)NC(=O)c2ccccc2S3)cc1 | inconclusive: 0.631 µM [inhibitor, full curve] | –
34 | COc1ccc(-c2n[nH]c(=S)nc2-c2ccc(OC)cc2)cc1 | inconclusive: 10 µM [inhibitor, partial curve, poor fit] | –
35 | O=C(c1cccs1)c1ccccc1Cc1cccs1 | – | inactive: -13.8%
36 | O=C(NCc1ccc(F)cc1)c1cccc2c1C(=O)c1ccc(N3CCC(N4CCCCC4)CC3)cc1S2(=O)=O | inconclusive: 44.7 µM [inhibitor, partial curve] | –
37 | Brc1cccc(-c2nnc(CN3CCN(c4ccccn4)CC3)o2)c1 | inconclusive: 28.2 µM [inhibitor, single point] | –
38 | Brc1ccc(CNc2ccc3ncccc3c2)cc1 | inconclusive: 39.8 µM [inhibitor, partial curve] | –
39 | CCOc1ccc(-c2nc(SCC(=O)c3ccccc3)n[nH]2)cc1 | inconclusive: 89.1 µM [inhibitor, partial curve, poor fit] | –
40 | COC(=O)c1ccc(N)c(N=CC2=C(O)CC(C)(C)CC2=O)c1 | – | inactive: -16.1%
41 | O=C(c1ccc(Br)cc1)N1CCN(CCc2ccncc2)CC1 | inconclusive: 11.2 µM [inhibitor, full curve, poor fit] | –
42 | CC(=O)/C(=C/c1ccccc1)C(=O)Nc1ccccc1C | – | inactive: -7.13%
43 | CCCc1ccc(S(=O)(=O)NCCc2ccncc2)cc1 | – | inactive: -1.45%
44 | COc1ccc(-c2noc(N(c3cccc(Cl)c3)c3nc(-c4ccc(OC)c(OC)c4)no3)n2)cc1OC | inconclusive: 4.47 µM [inhibitor, full curve, poor fit] | –

Row | Compound | Potency | activity change, negative = inhibition
45 | CCCN(CCC)CCCNC(=O)c1ccc(CS(=O)(=O)c2c(Cl)cccc2Cl)o1 | – | inactive: -23.8%
46 | OCCCn1c(-c2ccccc2)csc1=Nc1ccccc1 | inconclusive: 39.8 µM [inhibitor, partial curve] | –
47 | Oc1ccc(N=Nc2ccc3c(c2)OCCO3)c2cccnc12 | – | inactive: -22.8%
48 | Cc1nc(N)sc1N=Nc1ccc(F)cc1 | – | inactive: -0.368%
49 | O=C1c2[nH]nc(-c3ccccc3O)c2C(c2ccccc2F)N1Cc1cccnc1 (stereo unspecified) | inconclusive: 10 µM [inhibitor, single point] | –
50 | COCCCNC(=O)c1cc2c(-c3ccc(Cl)cc3)nn(C)c2s1 | inconclusive: 1.41 µM [inhibitor, full curve, poor fit] | –
51 | O=C(NCc1ccco1)C1CCN(S(=O)(=O)Cc2ccccc2)CC1 | inconclusive: 50.1 µM [inhibitor, partial curve, poor fit] | –
52 | O=C(NC1CCCCC1)c1ccc(CSc2nc3cccnc3n2Cc2ccc(F)cc2)cc1 | inconclusive: 44.7 µM [inhibitor, partial curve, poor fit] | –
53 | CCC(=O)N1CCN(c2ccc(NC(=O)c3cc4ccccc4o3)cc2Cl)CC1 | – | inactive: -0.852%
54 | C=Cc1ccc(Cn2nc(-c3ccc(C)cc3)ccc2=O)cc1 | inconclusive: 12.6 µM [inhibitor, partial curve, poor fit] and inconclusive: 44.7 µM [inhibitor, partial curve, poor fit] | –
55 | CCOC(=O)c1c(NC(=O)c2ccc(S(=O)(=O)N3CCC(C)CC3)cc2)sc2c1CCN(CC)C2 | inconclusive: 39.8 µM [inhibitor, partial curve, poor fit] | –
56 | Cc1cc(C)nc(NC(=NCCc2c[nH]c3ccc(Cl)cc23)NC(=O)c2ccccc2C)n1 | inconclusive: 39.8 µM [inhibitor, single point] | –
57 | CCOc1ccccc1N1C(=O)c2ccc(C(=O)Nc3cccnc3)cc2C1=O | inconclusive: 44.7 µM [inhibitor, partial curve, poor fit] | –
58 | CCC1c2ccc(C)n2CCN1C(=O)Nc1ccccc1C(=O)OC (stereo unspecified) | inconclusive: 39.8 µM [inhibitor, partial curve] | –
59 | OC(CNC1CCCC1)COc1ccc(-c2ccccc2)cc1 (stereo unspecified) | – | inactive: -7.16%
60 | CCOC(=O)/C(C#N)=C\C=C1C=CN(C)C=C1 | inconclusive: 31.6 µM [inhibitor, partial curve] | –
61 | Cc1cc(C)cc(NC(=S)NN)c1 | inconclusive: 5.62 µM [inhibitor, partial curve] | –
62 | CN(C)/N=C/c1ccc(P(c2ccc(/C=N/N(C)C)o2)c2ccc(/C=N/N(C)C)o2)o1 | inconclusive: 10 µM [inhibitor, partial curve, poor fit] | –
63 | CCCCNCCS(=O)(=O)NCc1ccccc1 | inconclusive: 39.8 µM [inhibitor, partial curve] | –
64 | CCn1c(SCC(=O)C(C)(C)C)nnc1-c1cccnc1 | inconclusive: 28.2 µM [inhibitor, single point] | –
65 | O=[N+]([O-])c1cc(Cl)ccc1N1CCCCC1 | – | inactive: -1.65%
66 | O=C(NCCCO)c1ccc2nc(-c3ccco3)c(-c3ccco3)nc2c1 | inconclusive: 20 µM [inhibitor, partial curve] | –
